In all, about 320,000 compounds went through this assay and about 22,000 (6.9%) were called active. The inconclusive results got no clear call from the source; some entries with a clear call stand among them for comparison. Calls come from the whole dose curve; as a rule, active = well fitted inhibition curve with a large enough effect; inconclusive = small, poorly fitted or top-dose-only effect, or another doubt; inactive = no such curve, though single readings can be large or run the other way. Potencies of inconclusive entries are doubtful fits and often do not repeat.
Experiment: Primary qHTS for delayed death inhibitors of the malarial parasite plastid, 96 hour incubation
Conditions: P. falciparum luciferase reporter growth; series mostly up to 28.7 µM; activity change, negative = inhibition: at the top concentration
Outline: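 Readout is luminescence from an integrated firefly luciferase in P. falciparum. Red cells, 2% hematocrit and 0.05% parasitemia final, were cultured with compound through two parasite generations (96 hours) at 37 C, 5% CO2.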
% is set by controls: 0 for no effect and ±100 for the full control effect; potency is the fitted concentration of half-maximal effect.

Compound	Potency	activity change, negative = inhibition
Cc1ccc(S(=O)(=O)c2c(N)n(NC(=O)c3ccco3)c3nc4ccccc4nc23)cc1	inconclusive: 18.5 µM [inhibitor, single point]	
COc1ccc(CCC(=O)Nc2cc(S(=O)(=O)N3CCCCC3)ccc2N(C)C)cc1	inconclusive: 10.4 µM [inhibitor, single point]	
Cc1ccc(C(=O)/C=C\Nc2ccc(C)c(C)c2)cc1		inactive: 246%
COC(=O)c1ccccc1NC(=O)COC(=O)[C@H](C)NC(N)=O	inconclusive: 18.5 µM [inhibitor, single point]	
CN(c1ccccc1)S(=O)(=O)c1cccc(C(=O)Nc2ccc3c(c2)CCC3)c1	inconclusive: 8.28 µM [inhibitor, partial curve, poor fit]	
CCOc1ccccc1Nc1cc(C)nc2nnnn12	inconclusive: 0.294 µM [inhibitor, full curve, poor fit]	
Cc1ccc(NC(=O)CSc2nnc([C@@H](N)Cc3c[nH]c4ccccc34)o2)c(C)c1	active: 9.28 µM	
Cc1ccc(Nc2ncccc2C(N)=O)cc1		inactive: 157%
COc1ccc([C@H]2CC(=O)C=C(c3cc(Cl)ccc3OC)C2)cc1	inconclusive: 10.4 µM [inhibitor, single point]	
CCCCN(C(=O)NCCCCCCNC(=O)N(CCCC)C1CCS(=O)(=O)C1)C1CCS(=O)(=O)C1 (stereo unspecified)	inconclusive: 10.4 µM [inhibitor, single point]	
C=CCNC(=O)/C(C#N)=C/c1c(C)nn(-c2ccccc2)c1Cl		inactive: -5.71%
CCCCOc1c(C(=O)Nc2ccccc2)nnn1-c1ccccc1		inactive: -7.51%
CCOCCCNc1nc(C(F)(F)F)nc2c1nnn2Cc1ccccc1Cl		inactive: -20.1%
Cc1ccc(S(=O)(=O)N(C)C)cc1NC(=O)COC(=O)Cc1ccccc1F		inactive: 0.75%
CCOc1ccc(C(=O)N(c2ccccn2)C2CCCCC2)cc1		inactive: 4.09%
O=C1CCC(=O)N1c1ccc(NCc2ccccc2Cl)c([N+](=O)[O-])c1		inactive: 3.06%
O=C(CN1CCN(C(c2ccccc2)c2ccccc2)CC1)Nc1ccc(N2CCOCC2)cc1	inconclusive: 2.08 µM [inhibitor, partial curve, poor fit]	
Cc1c(Cl)cccc1NC(=S)N1CCC(N(C)CC2CCCO2)CC1 (stereo unspecified)	active: 6.57 µM	
CCOc1ccccc1NC(=O)c1nnn(CC(=O)Nc2cc(C)cc(C)c2)c1N	inconclusive: 18.5 µM [inhibitor, partial curve, poor fit]	
Cc1ccc(N2C(=O)[C@@H]3[C@H](C2=O)C2CCCN2[C@@H]3C(=O)c2ccccc2)cc1 (stereo partly specified)	inconclusive: 0.147 µM [inhibitor, full curve]	
Cc1nc(Nc2cnc(/C=C/c3cc(C(=O)Nc4cccc(C(F)(F)F)c4)ccc3C)cn2)cc(N2CCNCC2)n1	inconclusive: 0.233 µM [inhibitor, full curve, poor fit]	
COc1ccccc1CNC(=O)CSc1ccc(-c2cccc([N+](=O)[O-])c2)nn1		inactive: 0.285%
Cc1ccc(C(=O)NCCC(=O)NCc2ccco2)cc1	active: 10.4 µM	

Some of the entries so far, in markdown:

| Compound | Potency | activity change, negative = inhibition |
| --- | --- | --- |
| Cc1c(Cl)cccc1NC(=S)N1CCC(N(C)CC2CCCO2)CC1 (stereo unspecified) | active: 6.57 µM |  |
| CCOc1ccccc1NC(=O)c1nnn(CC(=O)Nc2cc(C)cc(C)c2)c1N | inconclusive: 18.5 µM [inhibitor, partial curve, poor fit] |  |

(next part)

Compound	Potency	activity change, negative = inhibition
COc1ccc(N(CC(=O)NCc2cccnc2)S(=O)(=O)c2ccc(C)c([N+](=O)[O-])c2)cc1	inconclusive: 2.33 µM [inhibitor, full curve, poor fit]	
COCC[N+]1(C)CCCCC1	inconclusive: 1.65 µM [inhibitor, partial curve, poor fit]	
COc1cccc(CNc2cnc3ccccc3c2)c1O	inconclusive: 9.28 µM [inhibitor, single point]	
CN1C(=O)Cc2cc(S(=O)(=O)N3CCN(c4cccc(Cl)c4)CC3)ccc21		inactive: 0.236%
CN1CCN(C(=O)CSc2nc3ccc(NC(=O)c4ccccc4F)cc3s2)CC1	inconclusive: 4.65 µM [inhibitor, partial curve]	
C/C(=N\NC(=O)c1ccco1)c1ccc(NC(=O)c2ccccc2)cc1	active: 13.1 µM	
C[C@H]1CC[C@H]2C(=O)N[C@H](Cc3ccccc3)C(=O)N2[C@@H]1c1ccccc1		inactive: -71.6%
O=C(/C=C/c1ccc(Cl)cc1)N(c1ccccn1)C1CCCCC1	inconclusive: 0.928 µM [inhibitor, full curve, poor fit]	
Cc1ccc(C(=O)/C=C/c2ccc(F)cc2)o1	inconclusive: 3.29 µM [inhibitor, partial curve, poor fit]	
c1ccc2[nH]c(SN3CCOCC3)nc2c1	inconclusive: 0.0037 µM [inhibitor, full curve, poor fit]	
O=C(CCC(=O)N1CCCCC1)Nc1ccc(Cl)c(Cl)c1	active: 11.7 µM	
Cc1cccc(C(=O)Nc2cccc(NC(=O)c3ccccc3)c2)c1	inconclusive: 3.7 µM [inhibitor, partial curve, poor fit]	
CCCCCOC(=O)C1=C(C)NC(=O)NC1c1ccc2c(c1)OCO2 (stereo unspecified)		inactive: -2.61%
CCCCn1c(C2CCCCC2)nc2cc3[nH]c(=O)c(C(C)C)nc3cc21	active: 9.28 µM	
Nn1cnc2scc(-c3ccco3)c2c1=O		inactive: 22.8%
O=C1CC(c2nc3ccccc3[nH]2)CN1c1ccccc1F (stereo unspecified)		inactive: 2.13%
O=C(c1ccncc1)c1ccc(NC(=O)c2cccs2)cc1	inconclusive: 2.62 µM [inhibitor, partial curve, poor fit]	
CCOc1ccccc1OCCC(=O)Nc1ccc(F)c(Cl)c1	inconclusive: 18.5 µM [inhibitor, single point]	
CC(C)[C@H](NC(=O)[C@@H]1Cc2ccccc2CN1C(=O)OC(C)(C)C)C(=O)NCC1CCC(C(=O)O)CC1 (stereo partly specified)		inactive: -24.7%
O=C(O)CCCn1c(=O)c2cccn2c2ccc(F)cc21	inconclusive: 3.7 µM [inhibitor, full curve, poor fit]	
Cc1ccc(C(=O)OCC(=O)c2ccccc2)cc1	inconclusive: 18.5 µM [inhibitor, single point]	
CCCCc1ccc(NC(=S)Nc2ccc(Cl)c(S(=O)(=O)N(C)C)c2)cc1	inconclusive: 18.5 µM [inhibitor, single point]	
CCN(C(=O)c1cnc(NC(C)C)cc1C(F)(F)F)c1ccc(Cl)cc1	active: 11.7 µM	

Reference: PubChem BioAssay AID504834 (National Center for Advancing Translational Sciences (NCATS), 2011)
